Test results reported in the supplement of paper PMC12823440, “Inhibitors supercharge kinase turnover through native proteolytic circuits” (Nature, 2025).
Structures can show the parent of a compound that is named as a salt. The list shows a part of the results. The calls rarely recur for the same compound in another form.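 Kinases were expressed as nanoluciferase fusions in K562 cells and luminescence was read every 4 h between 2 and 18 h as percent of control, DMSO set to 100% and a positive control to 0%. A time point counts as decreased when the signal drops significantly (2 sigma). The hit call is the authors' own, does not follow from the count of time points alone, and its rule is not shown.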

Sequences of proteins named here, by UniProt entry; tags and fusion partners are left off. A change or cut given only in a name is not applied to a line headed by its entry.
UniProt P50613: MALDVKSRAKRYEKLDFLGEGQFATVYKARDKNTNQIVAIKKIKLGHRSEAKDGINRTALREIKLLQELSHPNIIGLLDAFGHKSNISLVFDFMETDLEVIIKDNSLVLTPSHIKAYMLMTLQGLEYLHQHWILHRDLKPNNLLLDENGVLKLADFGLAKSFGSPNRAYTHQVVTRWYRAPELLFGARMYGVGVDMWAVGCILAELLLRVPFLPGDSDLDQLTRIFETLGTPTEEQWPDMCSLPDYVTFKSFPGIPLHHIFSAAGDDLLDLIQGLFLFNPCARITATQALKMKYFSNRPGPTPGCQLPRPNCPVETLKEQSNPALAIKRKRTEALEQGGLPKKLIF
UniProt P50750, whole entry: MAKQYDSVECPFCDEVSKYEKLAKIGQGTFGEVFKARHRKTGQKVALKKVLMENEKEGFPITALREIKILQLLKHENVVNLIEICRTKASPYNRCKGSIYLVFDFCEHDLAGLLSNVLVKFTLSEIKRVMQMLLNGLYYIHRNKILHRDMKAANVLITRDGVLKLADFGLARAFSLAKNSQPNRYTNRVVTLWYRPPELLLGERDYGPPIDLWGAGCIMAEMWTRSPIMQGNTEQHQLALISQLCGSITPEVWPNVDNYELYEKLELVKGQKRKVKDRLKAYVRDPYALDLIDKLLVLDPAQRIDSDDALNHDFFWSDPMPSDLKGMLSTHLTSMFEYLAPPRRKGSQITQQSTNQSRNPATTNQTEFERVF
UniProt O96017, whole entry: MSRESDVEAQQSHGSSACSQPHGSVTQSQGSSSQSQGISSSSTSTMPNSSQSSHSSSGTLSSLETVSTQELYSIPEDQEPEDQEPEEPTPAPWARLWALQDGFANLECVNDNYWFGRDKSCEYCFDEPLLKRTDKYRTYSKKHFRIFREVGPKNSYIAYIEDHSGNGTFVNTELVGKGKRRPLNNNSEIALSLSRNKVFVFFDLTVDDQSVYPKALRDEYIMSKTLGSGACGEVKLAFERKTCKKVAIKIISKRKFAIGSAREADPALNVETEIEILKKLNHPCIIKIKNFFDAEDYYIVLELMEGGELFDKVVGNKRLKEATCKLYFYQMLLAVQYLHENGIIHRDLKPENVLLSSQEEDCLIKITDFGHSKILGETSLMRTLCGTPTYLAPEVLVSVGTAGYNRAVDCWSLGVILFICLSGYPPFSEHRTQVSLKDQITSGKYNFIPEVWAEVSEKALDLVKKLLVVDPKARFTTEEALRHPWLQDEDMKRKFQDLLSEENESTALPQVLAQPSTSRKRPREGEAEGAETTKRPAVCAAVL
UniProt P07333, whole entry: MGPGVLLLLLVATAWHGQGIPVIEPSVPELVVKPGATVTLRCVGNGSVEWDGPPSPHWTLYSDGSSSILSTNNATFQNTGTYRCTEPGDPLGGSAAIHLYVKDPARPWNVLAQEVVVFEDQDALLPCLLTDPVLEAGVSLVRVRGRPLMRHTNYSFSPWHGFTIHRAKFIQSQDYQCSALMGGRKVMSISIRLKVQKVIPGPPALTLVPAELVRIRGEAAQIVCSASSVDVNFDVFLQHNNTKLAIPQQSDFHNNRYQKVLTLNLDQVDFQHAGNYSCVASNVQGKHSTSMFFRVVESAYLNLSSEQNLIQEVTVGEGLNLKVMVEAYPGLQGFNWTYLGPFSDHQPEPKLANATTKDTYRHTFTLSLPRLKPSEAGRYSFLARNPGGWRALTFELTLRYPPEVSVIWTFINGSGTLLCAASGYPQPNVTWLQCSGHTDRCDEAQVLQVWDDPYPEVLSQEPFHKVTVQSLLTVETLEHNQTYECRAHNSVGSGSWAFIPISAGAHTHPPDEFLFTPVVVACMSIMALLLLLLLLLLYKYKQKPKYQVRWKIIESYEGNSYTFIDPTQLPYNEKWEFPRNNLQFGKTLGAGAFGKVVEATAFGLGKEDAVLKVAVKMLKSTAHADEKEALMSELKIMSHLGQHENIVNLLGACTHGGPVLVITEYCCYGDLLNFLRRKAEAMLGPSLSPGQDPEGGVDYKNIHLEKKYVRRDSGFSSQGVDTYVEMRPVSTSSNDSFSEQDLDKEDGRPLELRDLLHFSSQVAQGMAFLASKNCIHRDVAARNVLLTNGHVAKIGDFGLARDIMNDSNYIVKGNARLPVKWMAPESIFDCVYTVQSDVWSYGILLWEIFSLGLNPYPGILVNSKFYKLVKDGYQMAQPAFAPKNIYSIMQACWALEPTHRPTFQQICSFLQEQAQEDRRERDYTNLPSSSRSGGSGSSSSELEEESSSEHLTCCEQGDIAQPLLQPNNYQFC
UniProt P41240: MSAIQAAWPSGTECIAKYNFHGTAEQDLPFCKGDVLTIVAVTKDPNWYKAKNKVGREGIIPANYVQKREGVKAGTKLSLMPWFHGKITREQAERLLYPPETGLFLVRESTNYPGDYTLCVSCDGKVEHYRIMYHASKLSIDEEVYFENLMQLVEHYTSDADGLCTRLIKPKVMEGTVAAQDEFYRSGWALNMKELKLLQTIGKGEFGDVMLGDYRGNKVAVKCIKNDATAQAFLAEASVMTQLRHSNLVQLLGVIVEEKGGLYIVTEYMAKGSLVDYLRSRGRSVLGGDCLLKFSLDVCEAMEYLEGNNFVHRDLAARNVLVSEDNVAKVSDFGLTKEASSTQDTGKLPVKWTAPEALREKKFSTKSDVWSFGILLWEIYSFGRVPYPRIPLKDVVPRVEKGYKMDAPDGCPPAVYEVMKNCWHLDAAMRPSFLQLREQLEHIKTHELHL
UniProt P48729: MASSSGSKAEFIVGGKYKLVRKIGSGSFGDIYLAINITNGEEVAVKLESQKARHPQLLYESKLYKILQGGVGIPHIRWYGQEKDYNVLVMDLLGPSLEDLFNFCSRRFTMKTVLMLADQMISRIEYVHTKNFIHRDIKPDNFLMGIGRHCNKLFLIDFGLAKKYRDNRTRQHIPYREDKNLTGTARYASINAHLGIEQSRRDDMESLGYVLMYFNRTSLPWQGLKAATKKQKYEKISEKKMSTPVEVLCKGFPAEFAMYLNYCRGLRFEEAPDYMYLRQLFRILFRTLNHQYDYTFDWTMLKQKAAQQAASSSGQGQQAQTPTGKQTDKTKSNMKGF
UniProt P48730: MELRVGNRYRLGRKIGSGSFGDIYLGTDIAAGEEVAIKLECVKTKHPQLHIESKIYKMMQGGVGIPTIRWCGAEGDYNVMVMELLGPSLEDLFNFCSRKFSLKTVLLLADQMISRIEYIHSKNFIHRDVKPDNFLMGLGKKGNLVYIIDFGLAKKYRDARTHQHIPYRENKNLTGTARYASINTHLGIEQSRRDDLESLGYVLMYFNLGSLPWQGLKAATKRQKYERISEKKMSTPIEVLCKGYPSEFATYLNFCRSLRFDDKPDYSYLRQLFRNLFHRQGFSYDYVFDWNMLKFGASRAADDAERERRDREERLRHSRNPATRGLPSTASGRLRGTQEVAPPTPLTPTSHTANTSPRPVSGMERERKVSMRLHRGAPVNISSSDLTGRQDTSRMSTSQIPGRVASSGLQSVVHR
UniProt Q08345: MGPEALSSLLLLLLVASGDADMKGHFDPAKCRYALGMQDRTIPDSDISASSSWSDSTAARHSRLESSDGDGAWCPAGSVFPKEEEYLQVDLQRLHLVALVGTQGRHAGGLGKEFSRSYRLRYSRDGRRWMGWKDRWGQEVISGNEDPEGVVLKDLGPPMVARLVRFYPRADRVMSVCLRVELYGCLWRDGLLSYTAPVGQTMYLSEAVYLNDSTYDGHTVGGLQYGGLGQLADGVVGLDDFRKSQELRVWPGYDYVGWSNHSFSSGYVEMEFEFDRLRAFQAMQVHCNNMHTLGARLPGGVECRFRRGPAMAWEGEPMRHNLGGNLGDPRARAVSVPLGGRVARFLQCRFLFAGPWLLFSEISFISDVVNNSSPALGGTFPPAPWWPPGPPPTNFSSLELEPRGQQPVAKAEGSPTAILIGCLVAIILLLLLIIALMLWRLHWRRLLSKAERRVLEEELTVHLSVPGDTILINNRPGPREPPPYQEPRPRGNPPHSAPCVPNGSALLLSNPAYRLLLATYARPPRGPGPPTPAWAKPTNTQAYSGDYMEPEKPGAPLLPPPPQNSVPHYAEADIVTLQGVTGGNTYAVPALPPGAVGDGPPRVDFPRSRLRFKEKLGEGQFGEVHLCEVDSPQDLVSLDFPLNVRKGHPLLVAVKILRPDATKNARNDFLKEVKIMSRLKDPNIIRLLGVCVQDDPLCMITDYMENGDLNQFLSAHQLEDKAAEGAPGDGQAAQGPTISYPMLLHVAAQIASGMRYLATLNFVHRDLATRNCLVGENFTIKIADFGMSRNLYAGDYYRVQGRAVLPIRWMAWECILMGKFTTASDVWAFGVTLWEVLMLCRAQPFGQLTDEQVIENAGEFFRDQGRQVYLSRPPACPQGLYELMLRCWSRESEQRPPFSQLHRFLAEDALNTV
UniProt Q9Y463, whole entry, looked up: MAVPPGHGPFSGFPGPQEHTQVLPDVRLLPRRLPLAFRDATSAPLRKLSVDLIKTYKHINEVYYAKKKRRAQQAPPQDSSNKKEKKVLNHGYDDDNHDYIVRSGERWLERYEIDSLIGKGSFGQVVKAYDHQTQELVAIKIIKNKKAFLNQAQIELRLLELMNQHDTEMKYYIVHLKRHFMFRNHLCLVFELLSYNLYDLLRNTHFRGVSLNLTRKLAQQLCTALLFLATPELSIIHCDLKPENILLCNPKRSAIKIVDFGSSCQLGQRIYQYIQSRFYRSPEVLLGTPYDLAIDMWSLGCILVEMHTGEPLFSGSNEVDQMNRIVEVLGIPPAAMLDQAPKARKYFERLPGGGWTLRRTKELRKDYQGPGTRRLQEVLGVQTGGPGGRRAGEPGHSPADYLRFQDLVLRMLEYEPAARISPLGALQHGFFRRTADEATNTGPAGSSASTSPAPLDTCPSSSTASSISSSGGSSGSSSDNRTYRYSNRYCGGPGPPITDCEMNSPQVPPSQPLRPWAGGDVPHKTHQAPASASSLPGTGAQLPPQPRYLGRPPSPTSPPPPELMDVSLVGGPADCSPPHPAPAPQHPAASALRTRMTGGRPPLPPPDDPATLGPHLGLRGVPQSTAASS
UniProt Q92630: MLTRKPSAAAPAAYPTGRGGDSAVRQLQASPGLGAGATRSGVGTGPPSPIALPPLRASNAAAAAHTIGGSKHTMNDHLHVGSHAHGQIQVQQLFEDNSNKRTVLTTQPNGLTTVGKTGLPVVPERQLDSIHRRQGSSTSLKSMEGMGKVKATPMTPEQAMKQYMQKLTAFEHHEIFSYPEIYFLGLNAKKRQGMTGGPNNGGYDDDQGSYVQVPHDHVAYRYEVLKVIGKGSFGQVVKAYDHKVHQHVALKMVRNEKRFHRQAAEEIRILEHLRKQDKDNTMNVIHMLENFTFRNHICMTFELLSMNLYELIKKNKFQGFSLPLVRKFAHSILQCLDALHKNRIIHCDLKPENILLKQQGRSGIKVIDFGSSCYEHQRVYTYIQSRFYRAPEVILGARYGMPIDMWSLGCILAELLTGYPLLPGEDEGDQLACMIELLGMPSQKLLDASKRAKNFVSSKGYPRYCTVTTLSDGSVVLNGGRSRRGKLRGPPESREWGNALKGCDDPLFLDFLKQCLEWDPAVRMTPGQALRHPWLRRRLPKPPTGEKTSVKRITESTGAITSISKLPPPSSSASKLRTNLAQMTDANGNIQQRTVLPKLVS

How the values were obtained:
Assay in all cases: kinase-Nluc reporter destabilization hit call (1 = scored as downregulated) (binary); higher = compound decreases kinase abundance
Details in all cases: K562; 2-18 h
[1] = target: CDK7 (UniProt P50613)
[2] = target: CDK9 (UniProt P50750)
[3] = target: CHEK2 (UniProt O96017)
[4] = target: CSF1R (UniProt P07333)
[5] = target: CSK (UniProt P41240)
[6] = target: CSNK1A1 (UniProt P48729)
[7] = target: CSNK1D (UniProt P48730)
[8] = target: DDR1 (UniProt Q08345)
[9] = target: DYRK1B (UniProt Q9Y463)
[10] = target: DYRK2 (UniProt Q92630)

| Structure (SMILES) | kinase-Nluc reporter destabilization hit call [1] | kinase-Nluc reporter destabilization hit call [2] | kinase-Nluc reporter destabilization hit call [3] | kinase-Nluc reporter destabilization hit call [4] | kinase-Nluc reporter destabilization hit call [5] | kinase-Nluc reporter destabilization hit call [6] | kinase-Nluc reporter destabilization hit call [7] | kinase-Nluc reporter destabilization hit call [8] | kinase-Nluc reporter destabilization hit call [9] | kinase-Nluc reporter destabilization hit call [10] |
| --- | --- | --- | --- | --- | --- | --- | --- | --- | --- | --- |
| O=C(Nc1ccnc(NC(=O)C2CC2)c1)c1c(Cl)cccc1Cl (10 µM) | inactive: 0 | inactive: 0 | inactive: 0 | inactive: 0 | inactive: 0 | inactive: 0 | inactive: 0 | inactive: 0 | inactive: 0 | inactive: 0 |
| CCCS(=O)(=O)N[C@H]1C[C@@H](N(C)c2ncnc3[nH]ccc23)C1 [Abrocitinib] (10 µM) | inactive: 0 | inactive: 0 | inactive: 0 | inactive: 0 | inactive: 0 | inactive: 0 | inactive: 0 | inactive: 0 | inactive: 0 | inactive: 0 |
| Nc1ccc(-c2nc3ccc(-c4nc5ccc(N)cc5[nH]4)cc3[nH]2)cc1 (10 µM) | inactive: 0 | inactive: 0 | inactive: 0 | inactive: 0 | inactive: 0 | inactive: 0 | inactive: 0 | inactive: 0 | inactive: 0 | inactive: 0 |
| Cc1nc(Nc2cnn(C3CCNCC3)c2)nc2c1N(C)C(=O)c1cc3ccccc3cc1N2C (2.5 µM) | inactive: 0 | inactive: 0 | inactive: 0 | inactive: 0 | inactive: 0 | inactive: 0 | inactive: 0 | inactive: 0 | inactive: 0 | inactive: 0 |
| CCCCNc1ncc(C(=O)NCc2ccc(-n3ccnc3)cc2)c(NC2CCC(O)CC2)n1 (stereo not given) (10 µM) | inactive: 0 | inactive: 0 | inactive: 0 | inactive: 0 | inactive: 0 | inactive: 0 | inactive: 0 | active: 1 | inactive: 0 | inactive: 0 |
| O=CN1CCN(c2ccc(C=C3C(=O)Nc4ccccc43)cc2)CC1 (10 µM) | inactive: 0 | inactive: 0 | inactive: 0 | inactive: 0 | inactive: 0 | inactive: 0 | inactive: 0 | inactive: 0 | inactive: 0 | inactive: 0 |
| CN1CCN(c2ccc(-c3ccncc3-c3cc(F)c(O)c(F)c3)cc2)CC1 (10 µM) | inactive: 0 | inactive: 0 | inactive: 0 | inactive: 0 | inactive: 0 | inactive: 0 | inactive: 0 | inactive: 0 | inactive: 0 | inactive: 0 |
| CC(C)n1cnc2c(Nc3cccc(Cl)c3)nc(N[C@H]3CCCC[C@@H]3N)nc21 (2.5 µM) | inactive: 0 | inactive: 0 | inactive: 0 | inactive: 0 | inactive: 0 | inactive: 0 | inactive: 0 | inactive: 0 | inactive: 0 | inactive: 0 |
| O=C(NC[C@H](O)CO)c1ccncc1Nc1ccc(I)cc1F [Pimasertib] (10 µM) | inactive: 0 | inactive: 0 | inactive: 0 | inactive: 0 | inactive: 0 | inactive: 0 | inactive: 0 | inactive: 0 | inactive: 0 | inactive: 0 |
| COc1ccc2cc1Oc1ccc(cc1)C[C@H]1c3cc(c(OC)cc3CCN1C)Oc1c(O)c(OC)cc3c1[C@H](C2)N(C)CC3 [Fangchinoline] (2.5 µM) | inactive: 0 | inactive: 0 | inactive: 0 | inactive: 0 | inactive: 0 | inactive: 0 | inactive: 0 | inactive: 0 | inactive: 0 | inactive: 0 |
| COc1cc(N2CCC(O)CC2)ccc1Nc1nc(Nc2ccccc2S(=O)(=O)C(C)C)c2[nH]cnc2n1 (10 µM) | inactive: 0 | inactive: 0 | inactive: 0 | inactive: 0 | inactive: 0 | inactive: 0 | inactive: 0 | inactive: 0 | inactive: 0 | inactive: 0 |
| COc1cc2ncnc(Nc3cc(Br)c(O)c(Br)c3)c2cc1OC (2.5 µM) | inactive: 0 | inactive: 0 | inactive: 0 | inactive: 0 | inactive: 0 | inactive: 0 | inactive: 0 | inactive: 0 | inactive: 0 | inactive: 0 |
| CC1(C)CN(C(=O)c2ccc(-c3cccc4nc(NC(=O)C5CC5)nn34)cc2)C1 [Solcitinib] (10 µM) | inactive: 0 | inactive: 0 | inactive: 0 | inactive: 0 | inactive: 0 | inactive: 0 | inactive: 0 | inactive: 0 | inactive: 0 | inactive: 0 |
| Cc1cncc2cccc(S(=O)(=O)N3CCCNC[C@@H]3C)c12 [H-1152 (dihydrochloride)] (10 µM) | inactive: 0 | inactive: 0 | inactive: 0 | inactive: 0 | inactive: 0 | inactive: 0 | inactive: 0 | inactive: 0 | inactive: 0 | inactive: 0 |
| CN1CCN(c2ccc(-n3cc(-c4ccncc4OCC4CCNCC4)cn3)cc2)CC1 [MELK-8a (hydrochloride)] (10 µM) | inactive: 0 | inactive: 0 | inactive: 0 | inactive: 0 | inactive: 0 | inactive: 0 | inactive: 0 | inactive: 0 | inactive: 0 | inactive: 0 |
| Cn1cc(-c2nc(N[C@@H]3CCCC[C@@H]3N)c(F)c3c2C(=O)NC3)cn1 [TAK-659 (hydrochloride)] (2 µM) | inactive: 0 | inactive: 0 | inactive: 0 | inactive: 0 | inactive: 0 | inactive: 0 | inactive: 0 | inactive: 0 | inactive: 0 | inactive: 0 |
| CNC(=O)CN1CCC(Oc2cc3c(Nc4cccc(Cl)c4F)ncnc3cc2OC)CC1 [Sapitinib] (10 µM) | inactive: 0 | inactive: 0 | inactive: 0 | inactive: 0 | inactive: 0 | inactive: 0 | inactive: 0 | inactive: 0 | inactive: 0 | inactive: 0 |
| CCn1c(N)c(C(=O)NC)c(=O)c2ccc(C#CC(C)(O)COC)nc21 (stereo not given) (10 µM) | inactive: 0 | inactive: 0 | inactive: 0 | inactive: 0 | inactive: 0 | inactive: 0 | inactive: 0 | inactive: 0 | inactive: 0 | inactive: 0 |
| CCOC(=O)c1c(C)[nH]c(C=C2C(=O)Nc3ccccc32)c1C (10 µM) | inactive: 0 | inactive: 0 | inactive: 0 | inactive: 0 | inactive: 0 | inactive: 0 | inactive: 0 | inactive: 0 | inactive: 0 | inactive: 0 |
| CC(=O)O/N=C1/C(c2c(O)[nH]c3cc(Br)ccc23)=Nc2ccccc21 [BIO-acetoxime] (10 µM) | inactive: 0 | inactive: 0 | inactive: 0 | inactive: 0 | inactive: 0 | inactive: 0 | inactive: 0 | inactive: 0 | inactive: 0 | inactive: 0 |
| Cc1cc(N2CCOCC2)ccc1Nc1nc(NC2CCCCC2)c2[nH]cnc2n1 (10 µM) | inactive: 0 | inactive: 0 | inactive: 0 | inactive: 0 | inactive: 0 | inactive: 0 | inactive: 0 | inactive: 0 | inactive: 0 | inactive: 0 |
| CNc1cc2c(Nc3cccc(Br)c3)ncnc2cn1 (10 µM) | inactive: 0 | inactive: 0 | inactive: 0 | inactive: 0 | inactive: 0 | inactive: 0 | inactive: 0 | inactive: 0 | inactive: 0 | inactive: 0 |
| Cc1cnc(Cl)nc1-c1ccc(N(Cc2ccc(CNC(=O)C(F)F)cc2)C(=O)c2ccc(O)cc2O)cc1 (10 µM) | inactive: 0 | inactive: 0 | inactive: 0 | inactive: 0 | inactive: 0 | inactive: 0 | inactive: 0 | inactive: 0 | inactive: 0 | inactive: 0 |
| CCOC(=O)c1c(N2CCc3ccc(OC)cc3C2)oc(C=C2C=Nc3ncccc32)c1O (10 µM) | inactive: 0 | inactive: 0 | inactive: 0 | inactive: 0 | inactive: 0 | inactive: 0 | inactive: 0 | inactive: 0 | inactive: 0 | inactive: 0 |
| C=CC(=O)Nc1cccc(Oc2nc(Nc3ccc(N4CCN(C)CC4)cc3OC)ncc2Cl)c1 (10 µM) | inactive: 0 | inactive: 0 | inactive: 0 | inactive: 0 | inactive: 0 | inactive: 0 | inactive: 0 | inactive: 0 | inactive: 0 | inactive: 0 |
| NCCNS(=O)(=O)c1ccc(Cl)c2ccncc12 [CKI-7 (free base)] (10 µM) | inactive: 0 | inactive: 0 | inactive: 0 | inactive: 0 | inactive: 0 | inactive: 0 | inactive: 0 | inactive: 0 | inactive: 0 | inactive: 0 |
| Nc1[nH]nc2nnc(-c3c(-c4ccccc4)nn4ccccc34)cc12 (10 µM) | inactive: 0 | inactive: 0 | inactive: 0 | inactive: 0 | inactive: 0 | inactive: 0 | inactive: 0 | inactive: 0 | inactive: 0 | inactive: 0 |
| CCC(F)(F)c1cc(N2CCC(S(C)(=O)=O)CC2)nc2sc(C(N)=O)c(N)c12 (10 µM) | inactive: 0 | inactive: 0 | inactive: 0 | inactive: 0 | inactive: 0 | inactive: 0 | inactive: 0 | inactive: 0 | inactive: 0 | inactive: 0 |
| NC(=O)c1c(NC(=O)C2CC2)sc2c1CCCC2 (10 µM) | inactive: 0 | inactive: 0 | inactive: 0 | inactive: 0 | inactive: 0 | inactive: 0 | inactive: 0 | inactive: 0 | inactive: 0 | inactive: 0 |

Two records drawn at random from those above:

| Structure (SMILES) | kinase-Nluc reporter destabilization hit call [1] | kinase-Nluc reporter destabilization hit call [2] | kinase-Nluc reporter destabilization hit call [3] | kinase-Nluc reporter destabilization hit call [4] | kinase-Nluc reporter destabilization hit call [5] | kinase-Nluc reporter destabilization hit call [6] | kinase-Nluc reporter destabilization hit call [7] | kinase-Nluc reporter destabilization hit call [8] | kinase-Nluc reporter destabilization hit call [9] | kinase-Nluc reporter destabilization hit call [10] |
| --- | --- | --- | --- | --- | --- | --- | --- | --- | --- | --- |
| Cc1cc(N2CCOCC2)ccc1Nc1nc(NC2CCCCC2)c2[nH]cnc2n1 (10 µM) | inactive: 0 | inactive: 0 | inactive: 0 | inactive: 0 | inactive: 0 | inactive: 0 | inactive: 0 | inactive: 0 | inactive: 0 | inactive: 0 |
| CN1CCN(c2ccc(-n3cc(-c4ccncc4OCC4CCNCC4)cn3)cc2)CC1 [MELK-8a (hydrochloride)] (10 µM) | inactive: 0 | inactive: 0 | inactive: 0 | inactive: 0 | inactive: 0 | inactive: 0 | inactive: 0 | inactive: 0 | inactive: 0 | inactive: 0 |
